Reference: US20230235397A1, “METHODS FOR CLASSIFICATION AND TREATMENT OF PSYCHOTIC DISORDER SUBJECTS” (CENTRE HOSPITALIER UNIVERSITAIRE VAUDOIS (CHUV), priority 2019, published 2023)
For at least one compound, name, drawing or mass did not settle the structure.

How the values were obtained:
Gclm-KO mice [1] = conditions: pharmacological challenge of Gclm-KO mice, ACC; stated as known; cited from earlier work
Gclm-KO mice [2] = test: Additional oxidative challenge of Gclm-KO mice with GBR12909, markers in anterior cingulate cortex; assay type: in vivo
[3] = GBR12909 administered P10-P20, Gclm-KO mice, ACC, versus Gclm-KO+PBS

Fc1ccc(C(OCCN2CCN(CCCc3ccccc3)CC2)c2ccc(F)cc2)cc1 [GBR12909]
levels of oxidative DNA damage marker 8-oxo-dG (Gclm-KO mice [1]): elevated levels | FUNDC1 staining intensity (Gclm-KO mice [2]; [3]): further decreased | LC3B staining intensity (Gclm-KO mice [2]; [3]): further decreased | NIX staining intensity (Gclm-KO mice [2]; [3]): further decreased | co-localization of miR-137 staining in PVIs (Gclm-KO mice [2]; GBR administered P10-P20, Gclm-KO mice, ACC at P40): marked increase | parvalbumin immunoreactive cell count and puncta intensity (Gclm-KO mice [2]; Gclm-KO+GBR animals versus Gclm-KO): further depleted
